Results as given in US6649654B1, “Methods for identifying and using IKK inhibitors” (The Regents of the University of California, priority 1999, dated 2003).
For at least one compound, name, drawing or mass did not settle the structure.

Chains of the proteins cited; added tags and fusions are not shown. Lines headed by an entry give the natural chain unless they say otherwise; changes in a name come on top.
UniProt O14920: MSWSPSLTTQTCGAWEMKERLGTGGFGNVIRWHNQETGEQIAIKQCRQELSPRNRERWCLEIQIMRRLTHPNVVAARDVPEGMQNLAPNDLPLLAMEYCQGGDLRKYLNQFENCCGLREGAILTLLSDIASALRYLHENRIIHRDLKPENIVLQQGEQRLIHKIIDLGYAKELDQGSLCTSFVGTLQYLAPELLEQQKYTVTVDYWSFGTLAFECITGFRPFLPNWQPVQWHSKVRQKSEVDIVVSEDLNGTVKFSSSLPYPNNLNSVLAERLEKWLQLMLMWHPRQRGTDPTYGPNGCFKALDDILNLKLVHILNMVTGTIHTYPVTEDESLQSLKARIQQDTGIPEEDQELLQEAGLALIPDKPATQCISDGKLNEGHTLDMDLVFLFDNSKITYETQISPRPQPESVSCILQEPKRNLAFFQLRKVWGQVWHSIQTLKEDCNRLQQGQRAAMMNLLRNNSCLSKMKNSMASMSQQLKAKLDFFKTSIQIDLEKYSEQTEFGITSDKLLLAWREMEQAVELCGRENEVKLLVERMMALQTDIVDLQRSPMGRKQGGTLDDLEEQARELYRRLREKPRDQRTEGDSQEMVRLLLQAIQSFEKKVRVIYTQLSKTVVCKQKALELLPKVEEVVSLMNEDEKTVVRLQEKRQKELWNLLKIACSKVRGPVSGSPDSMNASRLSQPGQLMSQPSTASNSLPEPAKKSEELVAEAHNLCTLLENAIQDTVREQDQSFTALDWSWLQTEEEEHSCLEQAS
UniProt O15111: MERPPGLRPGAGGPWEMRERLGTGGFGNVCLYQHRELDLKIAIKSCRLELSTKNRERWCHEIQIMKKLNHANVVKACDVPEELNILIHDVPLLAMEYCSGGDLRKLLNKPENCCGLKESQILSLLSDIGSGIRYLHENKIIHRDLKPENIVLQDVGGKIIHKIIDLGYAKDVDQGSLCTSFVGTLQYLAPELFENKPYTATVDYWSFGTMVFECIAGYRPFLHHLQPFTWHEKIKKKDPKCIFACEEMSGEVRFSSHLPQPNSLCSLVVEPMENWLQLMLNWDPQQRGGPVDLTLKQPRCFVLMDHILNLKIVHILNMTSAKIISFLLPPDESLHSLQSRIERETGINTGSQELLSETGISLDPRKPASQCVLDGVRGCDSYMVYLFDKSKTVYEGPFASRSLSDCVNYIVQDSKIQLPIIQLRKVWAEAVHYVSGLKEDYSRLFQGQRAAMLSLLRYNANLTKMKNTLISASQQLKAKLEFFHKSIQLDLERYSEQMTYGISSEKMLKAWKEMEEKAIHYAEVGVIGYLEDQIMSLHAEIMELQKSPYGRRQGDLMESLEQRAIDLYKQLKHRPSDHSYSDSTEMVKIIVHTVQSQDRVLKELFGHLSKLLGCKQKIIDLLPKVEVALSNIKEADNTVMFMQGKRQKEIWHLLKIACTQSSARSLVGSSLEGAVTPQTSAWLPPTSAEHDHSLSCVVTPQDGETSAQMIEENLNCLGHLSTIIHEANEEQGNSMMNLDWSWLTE

Molecular target: IKK (Homo sapiens, UniProt O14920+O15111)
Assay: Endogenous IKK activity (kinase assay) in treated, stimulated HeLa cells
Type: cell-based
Parameters: Endogenous IKK was immunoprecipitated from TNFα-stimulated HeLa cells; endogenous in cells; host or cells: HeLa
Details: HeLa cells stimulated with TNFα (PGA1: IL-1 or TNFα)
Description: Cells used in the experiments described herein were cultured in either RPMI 1640 (Jurkat cells) or DMEM (HeLa and COS cells), supplemented with 10% FBS and antibiotics. Cells were stimulated with either 25 ng/ml TPA, 20 ng/ml recombinant TNFα, or 10 ng/ml interleukin 1β (Sigma). PGA1, 15dPGJ2, T×B2, LTB4, AA and other PGs (Cayman) dissolved in ethanol were used as well, as known in the art (See e.g., Rossi et al., 94:746-750 [1997]). Controls received equal amounts of ethanol. Transfections were performed using Lipofectamine Plus (GIBCO) for HeLa and COS cells and DEAE-dextran (Sigma) for Jurkat cells. Xpress-tagged NIK, Xpress-tagged MEKK1, HA-tagged IKKα, and HA-tagged IKKβ were also used (See e.g., Zandi et al., Science 281:1360-1363 [1998]; and Delhase et al., Science 284:309-313 [1999]). COX2 and cPLA2 expression vectors were obtained from Dr. L. Feng (See also, Hirose et al., J. Am. Soc. Nephrol., 9:408-416 [1998]). […]
Cell lysates were incubated with anti-IKKα (Pharmingen), anti-HA (12CA5; Pharmingen), anti-JNK1 (333.8; Pharmingen), or anti-p38 (New England Biolabs) for 2 hours. […] Endogenous IKK, HA-tagged IKKα, endogenous JNK1, and p38 activities were determined with GST-1κBα(1-54), GST-c-Jun(1-79), and GST-ATF2 as substrates.
In this Example, experiments to determined the effects of arachidonic acid and its metabolites on IKK activity in vivo and in vitro are described. […]

Structure (SMILES): Cc1c(C)c2c(c(C)c1O)CCC(C)(COc1ccc(CC3SC(=O)NC3=O)cc1)O2 (stereo not shown) [troglitazone, reference compound]
- effect on IKK activity: does not inhibit
